The list shows a part of the results.
Assays:
Experiment in all cases: glycan array binding signal (z-score within array); higher = stronger binding
Conditions in all cases: glycan notation: IUPAC condensed, linker removed
[1] = molecular target: Fuc(a1-2)Gal
How it was run: (§1)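 Glycan array data came from 3228 arrays in the Consortium for Functional Glycomics database, and only arrays with an available protein sequence were kept. Glycan names were put into IUPAC-condensed notation, and columns mapping to the same glycan were averaged. The binding signal is a within-array Z-score, averaged across arrays of one protein sequence run at different concentrations or buffers and across linkers. A negative Z-score can be read as non-binding.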

[2] = molecular target: Fuc(a1-2)Gal(b1-3)GalNAc
How it was run: as §1

[3] = molecular target: Fuc(a1-2)Gal(b1-3)GalNAc(a1-3)[Fuc(a1-2)]Gal(b1-4)Glc
How it was run: as §1

[4] = molecular target: Fuc(a1-2)Gal(b1-3)GalNAc(a1-3)[Fuc(a1-2)]Gal(b1-4)GlcNAc
How it was run: as §1

[5] = molecular target: Fuc(a1-2)Gal(b1-3)GalNAc(b1-3)Gal
How it was run: as §1

[6] = molecular target: Fuc(a1-2)Gal(b1-3)GalNAc(b1-3)Gal(a1-4)Gal(b1-4)Glc
How it was run: as §1

[7] = molecular target: Fuc(a1-2)Gal(b1-3)GalNAc(b1-4)[Neu5Ac(a2-3)]Gal(b1-4)Glc
How it was run: as §1

[8] = molecular target: Fuc(a1-2)Gal(b1-3)GlcNAc
How it was run: as §1

[9] = molecular target: Fuc(a1-2)Gal(b1-3)GlcNAc(b1-2)Man(a1-3)[Fuc(a1-2)Gal(b1-3)GlcNAc(b1-2)Man(a1-6)]Man(b1-4)GlcNAc(b1-4)GlcNAc
How it was run: as §1

[10] = molecular target: Fuc(a1-2)Gal(b1-3)GlcNAc(b1-2)Man(a1-3)[Fuc(a1-2)Gal(b1-3)GlcNAc(b1-2)Man(a1-6)]Man(b1-4)GlcNAc(b1-4)[Fuc(a1-6)]GlcNAc
How it was run: as §1

[11] = molecular target: Fuc(a1-2)Gal(b1-3)GlcNAc(b1-3)Gal(b1-4)Glc
How it was run: as §1

[12] = molecular target: Fuc(a1-2)Gal(b1-3)GlcNAc(b1-3)GalNAc
How it was run: as §1

[13] = molecular target: Fuc(a1-2)Gal(b1-3)GlcNAc(b1-3)[Fuc(a1-2)Gal(b1-3)GlcNAc(b1-6)]GalNAc
How it was run: as §1

[14] = molecular target: Fuc(a1-2)Gal(b1-3)GlcNAc(b1-3)[Gal(b1-4)GlcNAc(b1-6)]Gal(b1-4)Glc
How it was run: as §1

[15] = molecular target: Fuc(a1-2)Gal(b1-3)GlcNAc(b1-3)[Neu5Ac(a2-6)Gal(b1-4)GlcNAc(b1-6)]Gal(b1-4)Glc
How it was run: as §1

[16] = molecular target: Fuc(a1-2)Gal(b1-3)GlcNAc6S
How it was run: as §1

[17] = molecular target: Fuc(a1-2)Gal(b1-3)[Fuc(a1-4)]GlcNAc
How it was run: as §1

[18] = molecular target: Fuc(a1-2)Gal(b1-3)[Fuc(a1-4)]GlcNAc(b1-2)Man(a1-3)[Fuc(a1-2)Gal(b1-3)[Fuc(a1-4)]GlcNAc(b1-2)Man(a1-3)]Man(b1-4)GlcNAc(b1-4)GlcNAc
How it was run: as §1

[19] = molecular target: Fuc(a1-2)Gal(b1-3)[Fuc(a1-4)]GlcNAc(b1-2)Man(a1-3)[Fuc(a1-2)Gal(b1-3)[Fuc(a1-4)]GlcNAc(b1-2)Man(a1-6)]Man(b1-4)GlcNAc(b1-4)[Fuc(a1-6)]GlcNAc(b1-4)[Fuc(a1-6)]GlcNAc
How it was run: as §1

[20] = molecular target: Fuc(a1-2)Gal(b1-3)[Fuc(a1-4)]GlcNAc(b1-3)[Fuc(a1-3)[Gal(b1-4)]GlcNAc(b1-6)]Gal(b1-4)Glc
How it was run: as §1

[21] = molecular target: Fuc(a1-2)Gal(b1-3)[Fuc(a1-4)]GlcNAc(b1-3)[Gal(b1-4)GlcNAc(b1-6)]Gal(b1-4)Glc
How it was run: as §1

[22] = molecular target: Fuc(a1-2)Gal(b1-4)Glc
How it was run: as §1

[23] = molecular target: Fuc(a1-2)Gal(b1-4)Glc6S
How it was run: as §1

[24] = molecular target: Fuc(a1-2)Gal(b1-4)GlcNAc
How it was run: as §1

[25] = molecular target: Fuc(a1-2)Gal(b1-4)GlcNAc(b1-2)Man
How it was run: as §1

[26] = molecular target: Fuc(a1-2)Gal(b1-4)GlcNAc(b1-2)Man(a1-3)[Fuc(a1-2)Gal(b1-4)GlcNAc(b1-2)Man(a1-6)]Man(b1-4)GlcNAc(b1-4)GlcNAc
How it was run: as §1

[27] = molecular target: Fuc(a1-2)Gal(b1-4)GlcNAc(b1-2)Man(a1-3)[Fuc(a1-2)Gal(b1-4)GlcNAc(b1-2)Man(a1-6)]Man(b1-4)GlcNAc(b1-4)[Fuc(a1-6)]GlcNAc
How it was run: as §1

[28] = molecular target: Fuc(a1-2)Gal(b1-4)GlcNAc(b1-2)[Fuc(a1-2)Gal(b1-4)GlcNAc(b1-4)]Man(a1-3)[Fuc(a1-2)Gal(b1-4)GlcNAc(b1-2)Man(a1-6)]Man(b1-4)GlcNAc(b1-4)GlcNAc
How it was run: as §1

[29] = molecular target: Fuc(a1-2)Gal(b1-4)GlcNAc(b1-3)Gal(b1-4)GlcNAc
How it was run: as §1

[30] = molecular target: Fuc(a1-2)Gal(b1-4)GlcNAc(b1-3)Gal(b1-4)GlcNAc(b1-2)Man(a1-3)[Fuc(a1-2)Gal(b1-4)GlcNAc(b1-3)Gal(b1-4)GlcNAc(b1-2)Man(a1-6)]Man(b1-4)GlcNAc(b1-4)GlcNAc
How it was run: as §1

B1: RobpsCRA (Robinia pseudoacacia) (protein)
chain: IKGGYWYSGSGLAVSDINPSHFTHLFCAFADLDPNTNKLTISSSNAAAFSTFTQTVRAKNPSVKTLLSIGGGGGRALAAVFANMASQASRRKSFIDSSIQLARRNNFHGLDLDWEYPSSDIDKTNFASLIREWRAAVATESSTSGTPALLLSAAVGGSDQITPLKYYPGEAIANNLDWVNVMTYDLYTSDSYPTLTQPPAPLFYPRGIFSADEGITKWIQSGVPESKLALGLPFYGFKWRLSDPNNHGLFAPATQGLGAVKYKDIVNTGGQVEFDSTYVTNYCFKGTDWYGYDDTQSISAKVAYAKQRGLFGYFAWHIEQDSNWALS
Question: B1 was tested. Which “glycan array binding signal (z-score)” value [1] did it give?
Answer: 0.207

Question: What about the “glycan array binding signal (z-score)” value [2] of the same binder?
Answer: 0.649

Question: What about the “glycan array binding signal (z-score)” value [3] of the same binder?
Answer: -0.338

Question: What about the “glycan array binding signal (z-score)” value [4] of the same binder?
Answer: -0.038

Question: And the “glycan array binding signal (z-score)” value [5]?
Answer: -0.261

Question: What about the “glycan array binding signal (z-score)” value [6] of the same binder?
Answer: -0.871

Question: And the “glycan array binding signal (z-score)” value [7]?
Answer: 0.66

Question: And the “glycan array binding signal (z-score)” value [8]?
Answer: 0.099

Question: What about the “glycan array binding signal (z-score)” value [9] of the same binder?
Answer: -0.384

Question: And the “glycan array binding signal (z-score)” value [10]?
Answer: 0.793

Question: What about the “glycan array binding signal (z-score)” value [11] of the same binder?
Answer: 0.505

Question: And the “glycan array binding signal (z-score)” value [12]?
Answer: -0.523

Question: And the “glycan array binding signal (z-score)” value [13]?
Answer: -0.536

Question: And the “glycan array binding signal (z-score)” value [14]?
Answer: -0.335

Question: And the “glycan array binding signal (z-score)” value [15]?
Answer: -0.554

Question: And the “glycan array binding signal (z-score)” value [16]?
Answer: -0.782

Question: And the “glycan array binding signal (z-score)” value [17]?
Answer: 0.547

Question: And the “glycan array binding signal (z-score)” value [18]?
Answer: -0.518

Question: What about the “glycan array binding signal (z-score)” value [19] of the same binder?
Answer: -0.179

Question: And the “glycan array binding signal (z-score)” value [20]?
Answer: -0.147

Question: What about the “glycan array binding signal (z-score)” value [21] of the same binder?
Answer: 0.032

Question: And the “glycan array binding signal (z-score)” value [22]?
Answer: 0.123

Question: And the “glycan array binding signal (z-score)” value [23]?
Answer: 0.304

Question: And the “glycan array binding signal (z-score)” value [24]?
Answer: -0.159

Question: And the “glycan array binding signal (z-score)” value [25]?
Answer: -0.338

Question: And the “glycan array binding signal (z-score)” value [26]?
Answer: -0.573

Question: What about the “glycan array binding signal (z-score)” value [27] of the same binder?
Answer: 1.02

Question: What about the “glycan array binding signal (z-score)” value [28] of the same binder?
Answer: -0.123

Question: And the “glycan array binding signal (z-score)” value [29]?
Answer: -0.435

Question: What about the “glycan array binding signal (z-score)” value [30] of the same binder?
Answer: 0.088

— the supplement of paper PMC8728848
